Pks13 thioesterase: 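Polyketide synthase Pks13, Mycobacterium tuberculosis (UniProt I6X8D2). Enzyme assay of the thioesterase domain of polyketide synthase 13; the read-out is not stated. Concentration: 30 µM. Higher reads as stronger inhibition (inferred from which compounds were picked for retests). Size under these conditions: about 67,000 compounds, about 300 of them at 50% or above in at least one test.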
LiHisRS: 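Histidine-tRNA ligase, Leishmania infantum (UniProt A4I591). Enzyme assay of histidyl-tRNA synthetase; the read-out is not stated. Tested at 30 µM. The record gives no direction; compounds that gave an IC50 in retests scored well above the rest, so higher reads as stronger inhibition. The assay is labelled LdHisRS but filed under L. infantum. About 69,000 compounds were tested under these conditions; 0.6% (about 410) showed 50% or more at least once.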

Protein sequences, listed by entry. Tags and fused reporters are not part of them. Residues count along the entry.
UniProt I6X8D2, whole entry: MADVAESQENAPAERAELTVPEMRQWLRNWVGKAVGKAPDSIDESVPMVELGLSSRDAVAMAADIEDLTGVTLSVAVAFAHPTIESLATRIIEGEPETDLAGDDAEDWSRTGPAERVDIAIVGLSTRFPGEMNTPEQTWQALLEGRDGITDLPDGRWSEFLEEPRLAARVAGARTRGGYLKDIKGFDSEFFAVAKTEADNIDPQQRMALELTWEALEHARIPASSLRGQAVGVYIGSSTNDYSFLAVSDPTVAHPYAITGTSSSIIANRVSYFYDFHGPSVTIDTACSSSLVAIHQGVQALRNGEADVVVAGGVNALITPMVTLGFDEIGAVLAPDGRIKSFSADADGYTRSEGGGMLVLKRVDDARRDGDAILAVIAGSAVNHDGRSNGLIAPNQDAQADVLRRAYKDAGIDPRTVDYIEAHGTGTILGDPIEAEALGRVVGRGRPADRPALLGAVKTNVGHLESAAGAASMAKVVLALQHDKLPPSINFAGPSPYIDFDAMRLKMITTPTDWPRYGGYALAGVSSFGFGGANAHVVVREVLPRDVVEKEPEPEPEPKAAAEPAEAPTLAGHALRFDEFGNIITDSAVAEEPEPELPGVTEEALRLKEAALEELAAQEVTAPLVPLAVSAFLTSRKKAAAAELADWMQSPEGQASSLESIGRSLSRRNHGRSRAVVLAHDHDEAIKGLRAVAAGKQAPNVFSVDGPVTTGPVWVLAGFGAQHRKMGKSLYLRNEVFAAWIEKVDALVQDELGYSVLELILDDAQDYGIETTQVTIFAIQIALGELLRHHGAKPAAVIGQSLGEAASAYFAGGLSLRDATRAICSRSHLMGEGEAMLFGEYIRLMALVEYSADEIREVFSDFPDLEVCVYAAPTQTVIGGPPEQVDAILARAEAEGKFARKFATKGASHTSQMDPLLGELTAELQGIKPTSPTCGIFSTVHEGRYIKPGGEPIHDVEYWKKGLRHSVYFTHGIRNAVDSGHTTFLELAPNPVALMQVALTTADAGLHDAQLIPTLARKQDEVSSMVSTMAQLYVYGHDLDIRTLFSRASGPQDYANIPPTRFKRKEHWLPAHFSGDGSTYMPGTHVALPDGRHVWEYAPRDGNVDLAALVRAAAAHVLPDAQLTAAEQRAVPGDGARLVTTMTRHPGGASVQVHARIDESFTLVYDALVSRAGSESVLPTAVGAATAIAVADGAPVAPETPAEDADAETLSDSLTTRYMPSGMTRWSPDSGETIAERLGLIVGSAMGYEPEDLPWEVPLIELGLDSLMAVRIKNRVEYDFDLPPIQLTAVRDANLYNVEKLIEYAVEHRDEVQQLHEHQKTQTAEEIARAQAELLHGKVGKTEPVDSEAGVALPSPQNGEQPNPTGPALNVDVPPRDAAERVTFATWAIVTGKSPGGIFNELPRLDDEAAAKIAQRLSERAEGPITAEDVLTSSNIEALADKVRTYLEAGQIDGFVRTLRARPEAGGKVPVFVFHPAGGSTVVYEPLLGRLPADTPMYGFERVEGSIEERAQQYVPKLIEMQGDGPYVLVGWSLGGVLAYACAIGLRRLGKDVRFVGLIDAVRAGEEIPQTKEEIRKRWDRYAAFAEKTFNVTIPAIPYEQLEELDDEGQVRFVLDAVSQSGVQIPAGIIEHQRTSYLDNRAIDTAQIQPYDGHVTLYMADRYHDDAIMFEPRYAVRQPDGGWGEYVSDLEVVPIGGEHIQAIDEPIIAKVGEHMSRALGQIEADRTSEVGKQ
UniProt A4I591, 1-473: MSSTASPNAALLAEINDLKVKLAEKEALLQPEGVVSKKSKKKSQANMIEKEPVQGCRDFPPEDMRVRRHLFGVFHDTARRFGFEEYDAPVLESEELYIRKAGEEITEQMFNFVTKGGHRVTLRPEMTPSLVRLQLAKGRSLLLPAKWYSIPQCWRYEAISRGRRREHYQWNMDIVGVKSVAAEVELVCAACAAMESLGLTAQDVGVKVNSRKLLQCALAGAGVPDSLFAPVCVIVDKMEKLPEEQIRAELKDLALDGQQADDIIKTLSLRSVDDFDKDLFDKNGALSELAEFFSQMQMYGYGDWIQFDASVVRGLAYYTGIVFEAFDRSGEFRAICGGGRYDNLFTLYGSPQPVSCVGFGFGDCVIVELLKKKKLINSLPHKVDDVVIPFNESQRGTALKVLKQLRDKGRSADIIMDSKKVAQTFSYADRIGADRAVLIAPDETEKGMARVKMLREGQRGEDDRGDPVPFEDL

Each number is a percent effect as filed.
The record does not define 0% and 100%; most values in the screen are far below 50% and negative numbers occur (in some assays of this library far below -100).
Compounds were drawn at random from those tested, without regard to their results.
A dash means the value is not listed here; it may have been measured.

| Compound | Pks13 thioesterase | LiHisRS |
|---|---|---|
| `CCC(=O)N1CCN(c2ccc(C(=O)OC)cc2)CC1C` (stereo not given) | -1.941 | 12.5 |
| `COc1ccccc1C1(C(=O)NCCN2CCCCC2)CCOCC1` | -34.28 | -0.9259 |
| `Cc1cc(C)n(CC2CN(CCc3ccncc3)CCO2)n1` (stereo not given) | -20.2 | 9.677 |
| `COc1cccc(CN2CCC(c3nnc(-c4cnc(C)cn4)o3)C2)c1` (stereo not given) | 18.12 | 17.14 |
| `Cc1nccn1-c1cc(CNS(=O)(=O)N2CCCC(C)C2)ccn1` (stereo not given) | -8.917 | 22.92 |
| `CCc1ocnc1C(=O)N1CCOCC1CC(=O)c1ccccc1` (stereo not given) | -13.4 | 1.613 |
| `Cc1nc(-c2cccnc2)ncc1C(=O)N1CCC(c2ncc[nH]2)CC1` | -12.86 | 17.95 |
| `CNCc1cc(C)n(-c2ccccc2OC)c1C` | -20.04 | 31.58 |
| `CCc1nc(CN2CCCN(C(=O)c3cncnc3C)CC2)cs1` | 5.405 | 15.09 |
| `COCC(c1cccc(C(F)(F)F)c1)N(C)C(=O)c1ccco1` (stereo not given) | -8.17 | 16.07 |
| `CCC(=O)N1CCC2(CC1)c1nc[nH]c1CCN2S(C)(=O)=O` | -4.998 | 22.12 |
| `CN1CCC(c2cccc(Cc3ccccc3)n2)CC1` | 16.36 | 28.87 |
| `Cc1cc(C(=O)NCC2CCCC2)c(C)n1-c1cccnc1` | -17.04 | 2.083 |
| `O=C1[C@H]2CCCC[C@H]2C(=O)N1c1cnn(Cc2cccc(F)c2)c1` | -26.23 | 10.62 |
| `c1cnc(N2CCOCC3(CN(Cc4nccs4)CCO3)C2)nc1` (stereo not given) | -29.53 | 18.58 |
| `N#Cc1cc2cc(Cl)cnc2nc1O` | 36.44 | 22.92 |
| `CCOc1ccccc1-c1noc(CN2CC(n3cccn3)C2)n1` | -17.28 | 13.33 |
| `COCCn1cc(C(=O)NC2CCS(=O)(=O)C2)c2ccccc2c1=O` (stereo not given) | -5.54 | 7.692 |
| `CSc1nccn1-c1cccc(C(=O)NCCCN2CCOCC2)c1` | -2.796 | 22.73 |
| `Cc1ccc(S(=O)(=O)N2Cc3c(CN(C)C)nn(C)c3C2)cc1` | -11.82 | 16.81 |
| `CCc1cnc(N2C[C@H]3C[C@H](C(=O)NC)[C@@H](C2)O3)nc1` | -26.64 | 19.44 |
| `Cc1nnc(NCCc2coc(-c3ccc(F)cc3)n2)c(C#N)c1C` | -38.78 | 48.57 |
| `CCN(Cc1ccccc1Cl)Cn1nc(C)c2c(C)onc2c1=O` | -0.6474 | 14.04 |
| `c1nc(NCC2(N3CCOCC3)CCSC2)c2sccc2n1` (stereo not given) | -28.67 | 24.68 |
| `Clc1ccc(-c2nnc(CNCCn3cccn3)o2)c(Cl)c1` | - | 11.86 |
| `CC(=O)N1CC[C@@H]2CN(C(=O)c3ccco3)CCO[C@@H]2C1` | -35.64 | 10.95 |
| `O=C(CN1CCCC1Cn1cncn1)NCCOc1cccc(F)c1` (stereo not given) | -8.244 | 7.576 |
| `CC(C)(C(=O)N1CCCC(OCc2cccnc2)C1)n1cccc1` (stereo not given) | -21.36 | 20 |
| `N[C@@H]1c2ccccc2C2(CCN(C(=O)c3ccc(=O)[nH]c3)CC2)[C@H]1O` | 13.06 | 11.32 |
| `Cc1cccc(C2(C(=O)NC(C)Cn3ccnc3)CC2)c1` (stereo not given) | -13.96 | 10.91 |
| `COc1ccc(C2C3=C(CCCC3=O)Nc3nc(SC)nc(N)c32)cc1` (stereo not given) | -13.19 | 17.2 |
| `Cc1cc(=O)c(C(=O)N(C)Cc2ccc(Cl)c(F)c2)c[nH]1` | 12.5 | -5.128 |
| `Cc1cnn(CC2CCCN2C(=O)CCc2ccco2)c1` (stereo not given) | 2.658 | 21.92 |
| `CNC(=O)COc1ccc(-c2ccccc2)nc1` | -30.5 | -3.125 |
| `CCSc1cc(C(=O)NCCC(=O)Nc2ccccn2)ccn1` | -11.3 | 21.15 |
| `Cc1c(CNC(=O)NCc2cccc(-n3cncn3)c2)cnn1C` | -26.2 | 4.918 |
| `O=C(CN1CCc2onc(-c3ccccc3F)c2C1)NC1CC1` | 9.557 | -6.024 |
| `COC(=O)[C@H]1CN(C(=O)NC(C)C)CCN1C(=O)C1CCCCC1` | 18.69 | 0 |
| `CCc1cnc(C)nc1NCc1nc(COC)no1` | -13.46 | 17.11 |
| `CC(=O)N1CCc2nnc(C3CCCN3CC3CCCCC3)n2CC1` (stereo not given) | 11.44 | 4.828 |
| `Cc1cnc(C)c(-c2cccc(-c3ccn(CCN4CCCC4)n3)c2)n1` | - | 39.34 |
| `CC(C)CNC(=O)N1C[C@H]2CC[C@@]3(N=C(c4ccccc4)NC3=O)[C@H]2C1` | -28.34 | 25.71 |
| `CCN1CCCC(C)(C(=O)NCCCc2nc(C)cs2)C1` (stereo not given) | -24.38 | 3.125 |
| `O=C(c1ccc(-n2cccn2)cc1Cl)N1CCCC(O)(CO)C1` (stereo not given) | -37.49 | 18.31 |
| `CC(C)CN(Cc1ccc(O)c(C(=O)O)c1)Cc1cnn(C)c1` | -17.53 | 6.061 |
| `O=C(CN1CCc2cncnc2C1)NC(c1ccccc1)C1CC1` (stereo not given) | 38.81 | 16 |
| `Cc1nc(CN(C)Cc2cc3c(cc2OC(F)F)OCO3)oc1C` | -14.32 | 10.26 |
| `Fc1cccc(CN2CCO[C@H]3[C@@H](OCc4ccccn4)CC[C@@H]32)c1` | -12.47 | 17.65 |
| `O=C(Cc1cccc2ccccc12)N1CCC(Nc2cccnn2)CC1` | 6.638 | 6.14 |
| `Cc1n[nH]c(CN2CCN(C(=O)C3CCC3)[C@@H]3CS(=O)(=O)C[C@@H]32)n1` | -3.516 | 18 |
| `O=C(c1coc2ccccc12)N1CCS(=O)(=O)CC1` | -17.18 | 9.167 |
| `CCN1CC(O)CN(C(=O)c2cccc(C(F)(F)F)c2)CC1=O` (stereo not given) | -6.579 | 12.24 |
| `CCOCCNC(=O)c1cccc(Cn2nc(C)cc2C)c1` | -20.85 | 20.99 |
| `O=C(NCCc1ccc(F)cc1)NCC(O)c1cccc(F)c1` (stereo not given) | -21.27 | 10.53 |
| `CCCS(=O)(=O)NCC1OCCc2cn(CC3CCOCC3)nc21` (stereo not given) | 3.458 | 26.32 |
| `COCC(=O)Nc1ccccc1Sc1c(C)n[nH]c1C` | -7.651 | 15.05 |
| `COc1ccccc1OC1CCN(C(=O)c2c[nH]c(=O)[nH]c2=O)CC1` | -20.83 | 6.667 |
| `COCC1c2c(cnn2C)CCN1Cc1ccco1` (stereo not given) | 15.33 | -7.692 |
| `CC(C)(O)CN1CC(C)(C)CN(C(=O)CCc2ccccc2)CC1=O` | 7.892 | 14.29 |
| `CN(C)Cc1nc2c(o1)CN(C(=O)NCc1cccc(F)c1)C2` | -11.07 | 10 |
| `COc1cccc(CN2C[C@@H]3COC[C@]3(COCc3ccccn3)C2)c1` | -21.47 | 15.6 |
| `Cc1noc(C)c1CN1CCN(Cc2nccn2C)CC1` | - | 17.57 |
| `Cn1cc(C(=O)NCC2CCN(C(=O)NCC(F)(F)F)CC2)cn1` | -7.615 | 21.62 |
| `Cc1n[nH]c(C2CN(C(=O)c3ccoc3C)CCO2)n1` (stereo not given) | 40.98 | 12.8 |
| `Cc1cc(C(=O)Nc2cnn(CC(=O)NC3CCCC3)c2)c(C)s1` | 4.456 | 17.74 |
| `COc1cccc(SCCCn2cnc3c(N)ncnc32)c1` | 10.52 | 4.082 |

Once more, the final 7:

Compound,Pks13 thioesterase,LiHisRS
CN(C)Cc1nc2c(o1)CN(C(=O)NCc1cccc(F)c1)C2,-11.07,10
COc1cccc(CN2C[C@@H]3COC[C@]3(COCc3ccccn3)C2)c1,-21.47,15.6
Cc1noc(C)c1CN1CCN(Cc2nccn2C)CC1,-,17.57
Cn1cc(C(=O)NCC2CCN(C(=O)NCC(F)(F)F)CC2)cn1,-7.615,21.62
Cc1n[nH]c(C2CN(C(=O)c3ccoc3C)CCO2)n1 (stereo not given),40.98,12.8
Cc1cc(C(=O)Nc2cnn(CC(=O)NC3CCCC3)c2)c(C)s1,4.456,17.74
COc1cccc(SCCCn2cnc3c(N)ncnc32)c1,10.52,4.082

From ChEMBL document CHEMBL3988442, “University of Dundee, Small-Polar-MMV Screening Library” (2021).